Results on 4 sequences are retold here after US20040219555.

Chains of the proteins cited; added tags and fusions are not shown. A line that says so, or that is headed by a name, gives the form on record, which may keep a tag or linker.
NF-kB p50-p65 heterodimer (Homo sapiens), one chain, as listed by the source: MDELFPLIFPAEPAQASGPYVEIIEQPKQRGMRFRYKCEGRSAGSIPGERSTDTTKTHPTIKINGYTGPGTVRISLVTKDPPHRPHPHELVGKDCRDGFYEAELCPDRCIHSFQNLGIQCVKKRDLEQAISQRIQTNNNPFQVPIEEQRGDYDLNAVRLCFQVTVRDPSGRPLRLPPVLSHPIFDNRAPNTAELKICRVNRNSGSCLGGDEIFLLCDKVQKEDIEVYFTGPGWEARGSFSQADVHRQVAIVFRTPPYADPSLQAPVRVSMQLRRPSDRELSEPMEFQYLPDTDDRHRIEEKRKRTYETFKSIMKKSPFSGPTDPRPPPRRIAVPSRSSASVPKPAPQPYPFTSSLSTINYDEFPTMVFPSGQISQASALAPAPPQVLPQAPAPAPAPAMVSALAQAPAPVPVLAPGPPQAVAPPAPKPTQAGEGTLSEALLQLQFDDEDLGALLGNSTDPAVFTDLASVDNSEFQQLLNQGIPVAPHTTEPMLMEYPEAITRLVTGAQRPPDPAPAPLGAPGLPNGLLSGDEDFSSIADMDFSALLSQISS

The target in data set [1] is T1, OCT1 (POU2F1) (Homo sapiens) (UniProt P14859).
T1 sequence (looked up, limits assumed): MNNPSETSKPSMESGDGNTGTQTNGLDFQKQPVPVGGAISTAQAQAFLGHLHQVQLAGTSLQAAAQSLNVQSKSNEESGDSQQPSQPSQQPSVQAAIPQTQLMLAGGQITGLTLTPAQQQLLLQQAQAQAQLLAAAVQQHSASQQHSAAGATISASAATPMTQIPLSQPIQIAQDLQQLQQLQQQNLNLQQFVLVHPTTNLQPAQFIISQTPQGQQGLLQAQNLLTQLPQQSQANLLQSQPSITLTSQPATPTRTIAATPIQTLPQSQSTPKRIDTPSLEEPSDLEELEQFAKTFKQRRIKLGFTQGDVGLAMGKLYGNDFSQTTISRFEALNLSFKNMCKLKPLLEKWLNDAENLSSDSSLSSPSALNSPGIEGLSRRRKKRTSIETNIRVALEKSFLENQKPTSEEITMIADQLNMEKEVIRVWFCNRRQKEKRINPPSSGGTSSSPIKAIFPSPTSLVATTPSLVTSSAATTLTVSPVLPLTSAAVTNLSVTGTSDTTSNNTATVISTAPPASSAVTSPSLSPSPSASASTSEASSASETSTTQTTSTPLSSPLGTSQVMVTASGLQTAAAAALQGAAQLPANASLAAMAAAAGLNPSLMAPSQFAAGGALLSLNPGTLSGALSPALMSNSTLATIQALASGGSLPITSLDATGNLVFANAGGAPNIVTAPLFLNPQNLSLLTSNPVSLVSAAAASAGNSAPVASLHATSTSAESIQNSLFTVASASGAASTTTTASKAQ
Kind of data set: EMSA. The conditions noted are these: protein in an extract, protein details: endogenous, MonoMac6 nuclear extract, label: 32P. On the technique in general: In EMSA bound probe runs differently from free probe, usually more slowly.

The target in data set [2] is T1, OCT1 (POU2F1) (Homo sapiens). In words: competition with a labelled probe. The following applies: 10x excess cold duplex abolishes OCT1 complex on -879/-845 probe; protein in an extract; protein details: endogenous, MonoMac6 nuclear extract.
For data set [3], the target named is T2, NF-kB p50-p50 homodimer (Homo sapiens) (UniProt P19838).
T2 sequence (looked up, limits assumed): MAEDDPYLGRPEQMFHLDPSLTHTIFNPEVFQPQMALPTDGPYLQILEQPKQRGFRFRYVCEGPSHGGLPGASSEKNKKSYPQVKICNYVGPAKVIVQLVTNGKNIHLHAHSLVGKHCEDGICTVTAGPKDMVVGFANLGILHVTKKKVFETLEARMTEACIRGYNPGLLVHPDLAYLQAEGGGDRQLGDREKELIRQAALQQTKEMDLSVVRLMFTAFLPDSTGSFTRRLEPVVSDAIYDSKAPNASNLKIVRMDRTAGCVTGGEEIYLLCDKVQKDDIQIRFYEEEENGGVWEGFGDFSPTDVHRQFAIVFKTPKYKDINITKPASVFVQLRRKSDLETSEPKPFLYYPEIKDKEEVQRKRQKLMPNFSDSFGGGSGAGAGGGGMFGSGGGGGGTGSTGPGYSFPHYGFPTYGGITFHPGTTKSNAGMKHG
Kind of data set: EMSA. The following applies: LPS-inducible complex, protein in an extract, label: 32P.

The test system of data set [4] is NF-kB p50-p65 heterodimer (Homo sapiens). Kind of data set: EMSA. The conditions noted are these: LPS-inducible complex, protein in an extract, label: 32P.
Setting [5] is: [none], letters built from the parent sequence and the stated change, variant of TNF -879/-845 857C.

Results from cells or extracts need not show a direct contact. For some assays here: No signal at the amounts used counts as a negative. For some assays here: Where a protein sequence is shown, tags need not be part of it.

With “AGCTCCCTTAACGAAGACAGGGCC (double strand) [TNF -864/-845 857C]”, the binding result in data set [1] (lanes 9, 10, variant of TNF -879/-845 857C) was “no binding”.

Turning to “AGCTCCCTTAATGCAAATAGG / AGCTCCTATTTGCATTAAGGG [OCT1 consensus competitor]”, in data set [2], the binding result is reported as “binds”.

For the sequence “AGCTGAGTATGGGGACCCCCCCTTAACGAAGACAGGGCC (double strand) [TNF -879/-845 857C]”, the binding result was “binds” in data set [3], “binds” in data set [4] and “no binding” in data set [1] (high molecular weight complex absent).

With “GAGTATGGGGACCCCCCCTTAA (double strand) [TNF -879/-858 (kB1)]”, the binding result is reported as “binds” in data set [3] (setting [5]); “binds” in data set [4] (setting [5]); “no binding” in data set [1] ([none], only NF-kB complexes described with this probe, 10x-100x NF-kB site (kB1) competitor had no effect on OCT1 complex, letters built from the parent sequence and the stated change, variant of TNF -879/-845 857C).
